This note sets out measurements from PMC2739719.

Sequences of proteins named here, by UniProt entry; tags and fusion partners are left off. A change or cut given only in a name is not applied to a line headed by its entry.
UniProt O75367: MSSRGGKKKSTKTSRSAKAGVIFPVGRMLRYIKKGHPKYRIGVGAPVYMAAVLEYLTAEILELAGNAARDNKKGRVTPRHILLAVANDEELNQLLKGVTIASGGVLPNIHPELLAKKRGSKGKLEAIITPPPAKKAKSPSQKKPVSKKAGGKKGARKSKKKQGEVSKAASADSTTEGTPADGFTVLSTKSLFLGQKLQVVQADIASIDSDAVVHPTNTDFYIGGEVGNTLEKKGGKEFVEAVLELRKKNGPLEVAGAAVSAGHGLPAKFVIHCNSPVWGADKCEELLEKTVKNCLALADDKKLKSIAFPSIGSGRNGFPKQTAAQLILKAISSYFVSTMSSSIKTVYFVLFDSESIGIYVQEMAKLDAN
UniProt P16403: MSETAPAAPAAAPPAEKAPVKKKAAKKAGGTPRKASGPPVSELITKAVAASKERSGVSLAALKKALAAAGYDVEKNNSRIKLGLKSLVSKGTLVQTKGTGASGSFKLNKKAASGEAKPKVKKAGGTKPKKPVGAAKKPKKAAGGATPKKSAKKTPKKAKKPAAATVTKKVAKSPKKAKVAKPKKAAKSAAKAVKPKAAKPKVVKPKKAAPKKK
UniProt Q01105: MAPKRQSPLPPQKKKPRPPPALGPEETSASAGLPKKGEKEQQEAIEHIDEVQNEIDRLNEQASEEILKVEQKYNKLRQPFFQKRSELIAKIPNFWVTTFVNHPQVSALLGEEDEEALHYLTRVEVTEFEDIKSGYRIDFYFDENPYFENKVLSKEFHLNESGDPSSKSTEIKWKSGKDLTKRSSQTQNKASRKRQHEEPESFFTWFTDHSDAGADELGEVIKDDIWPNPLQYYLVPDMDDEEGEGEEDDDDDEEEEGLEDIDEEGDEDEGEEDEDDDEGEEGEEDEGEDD
UniProt P35908: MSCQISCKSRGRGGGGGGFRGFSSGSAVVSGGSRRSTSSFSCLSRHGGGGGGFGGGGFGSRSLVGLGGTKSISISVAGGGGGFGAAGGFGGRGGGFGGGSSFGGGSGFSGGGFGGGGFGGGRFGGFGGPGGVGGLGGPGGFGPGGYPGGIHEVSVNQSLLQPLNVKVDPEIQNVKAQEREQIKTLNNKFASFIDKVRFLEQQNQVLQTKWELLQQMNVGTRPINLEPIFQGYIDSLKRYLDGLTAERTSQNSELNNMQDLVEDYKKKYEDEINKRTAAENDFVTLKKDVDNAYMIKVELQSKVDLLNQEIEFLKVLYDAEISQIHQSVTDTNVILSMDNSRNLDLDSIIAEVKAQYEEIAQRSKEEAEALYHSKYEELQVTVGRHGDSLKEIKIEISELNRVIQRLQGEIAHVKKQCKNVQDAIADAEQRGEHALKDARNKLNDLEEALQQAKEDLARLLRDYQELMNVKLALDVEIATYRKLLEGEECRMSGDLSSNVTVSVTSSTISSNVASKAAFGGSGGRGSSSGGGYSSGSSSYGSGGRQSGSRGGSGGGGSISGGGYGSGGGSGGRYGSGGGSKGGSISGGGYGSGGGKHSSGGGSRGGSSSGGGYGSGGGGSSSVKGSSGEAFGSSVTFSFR
UniProt P42858: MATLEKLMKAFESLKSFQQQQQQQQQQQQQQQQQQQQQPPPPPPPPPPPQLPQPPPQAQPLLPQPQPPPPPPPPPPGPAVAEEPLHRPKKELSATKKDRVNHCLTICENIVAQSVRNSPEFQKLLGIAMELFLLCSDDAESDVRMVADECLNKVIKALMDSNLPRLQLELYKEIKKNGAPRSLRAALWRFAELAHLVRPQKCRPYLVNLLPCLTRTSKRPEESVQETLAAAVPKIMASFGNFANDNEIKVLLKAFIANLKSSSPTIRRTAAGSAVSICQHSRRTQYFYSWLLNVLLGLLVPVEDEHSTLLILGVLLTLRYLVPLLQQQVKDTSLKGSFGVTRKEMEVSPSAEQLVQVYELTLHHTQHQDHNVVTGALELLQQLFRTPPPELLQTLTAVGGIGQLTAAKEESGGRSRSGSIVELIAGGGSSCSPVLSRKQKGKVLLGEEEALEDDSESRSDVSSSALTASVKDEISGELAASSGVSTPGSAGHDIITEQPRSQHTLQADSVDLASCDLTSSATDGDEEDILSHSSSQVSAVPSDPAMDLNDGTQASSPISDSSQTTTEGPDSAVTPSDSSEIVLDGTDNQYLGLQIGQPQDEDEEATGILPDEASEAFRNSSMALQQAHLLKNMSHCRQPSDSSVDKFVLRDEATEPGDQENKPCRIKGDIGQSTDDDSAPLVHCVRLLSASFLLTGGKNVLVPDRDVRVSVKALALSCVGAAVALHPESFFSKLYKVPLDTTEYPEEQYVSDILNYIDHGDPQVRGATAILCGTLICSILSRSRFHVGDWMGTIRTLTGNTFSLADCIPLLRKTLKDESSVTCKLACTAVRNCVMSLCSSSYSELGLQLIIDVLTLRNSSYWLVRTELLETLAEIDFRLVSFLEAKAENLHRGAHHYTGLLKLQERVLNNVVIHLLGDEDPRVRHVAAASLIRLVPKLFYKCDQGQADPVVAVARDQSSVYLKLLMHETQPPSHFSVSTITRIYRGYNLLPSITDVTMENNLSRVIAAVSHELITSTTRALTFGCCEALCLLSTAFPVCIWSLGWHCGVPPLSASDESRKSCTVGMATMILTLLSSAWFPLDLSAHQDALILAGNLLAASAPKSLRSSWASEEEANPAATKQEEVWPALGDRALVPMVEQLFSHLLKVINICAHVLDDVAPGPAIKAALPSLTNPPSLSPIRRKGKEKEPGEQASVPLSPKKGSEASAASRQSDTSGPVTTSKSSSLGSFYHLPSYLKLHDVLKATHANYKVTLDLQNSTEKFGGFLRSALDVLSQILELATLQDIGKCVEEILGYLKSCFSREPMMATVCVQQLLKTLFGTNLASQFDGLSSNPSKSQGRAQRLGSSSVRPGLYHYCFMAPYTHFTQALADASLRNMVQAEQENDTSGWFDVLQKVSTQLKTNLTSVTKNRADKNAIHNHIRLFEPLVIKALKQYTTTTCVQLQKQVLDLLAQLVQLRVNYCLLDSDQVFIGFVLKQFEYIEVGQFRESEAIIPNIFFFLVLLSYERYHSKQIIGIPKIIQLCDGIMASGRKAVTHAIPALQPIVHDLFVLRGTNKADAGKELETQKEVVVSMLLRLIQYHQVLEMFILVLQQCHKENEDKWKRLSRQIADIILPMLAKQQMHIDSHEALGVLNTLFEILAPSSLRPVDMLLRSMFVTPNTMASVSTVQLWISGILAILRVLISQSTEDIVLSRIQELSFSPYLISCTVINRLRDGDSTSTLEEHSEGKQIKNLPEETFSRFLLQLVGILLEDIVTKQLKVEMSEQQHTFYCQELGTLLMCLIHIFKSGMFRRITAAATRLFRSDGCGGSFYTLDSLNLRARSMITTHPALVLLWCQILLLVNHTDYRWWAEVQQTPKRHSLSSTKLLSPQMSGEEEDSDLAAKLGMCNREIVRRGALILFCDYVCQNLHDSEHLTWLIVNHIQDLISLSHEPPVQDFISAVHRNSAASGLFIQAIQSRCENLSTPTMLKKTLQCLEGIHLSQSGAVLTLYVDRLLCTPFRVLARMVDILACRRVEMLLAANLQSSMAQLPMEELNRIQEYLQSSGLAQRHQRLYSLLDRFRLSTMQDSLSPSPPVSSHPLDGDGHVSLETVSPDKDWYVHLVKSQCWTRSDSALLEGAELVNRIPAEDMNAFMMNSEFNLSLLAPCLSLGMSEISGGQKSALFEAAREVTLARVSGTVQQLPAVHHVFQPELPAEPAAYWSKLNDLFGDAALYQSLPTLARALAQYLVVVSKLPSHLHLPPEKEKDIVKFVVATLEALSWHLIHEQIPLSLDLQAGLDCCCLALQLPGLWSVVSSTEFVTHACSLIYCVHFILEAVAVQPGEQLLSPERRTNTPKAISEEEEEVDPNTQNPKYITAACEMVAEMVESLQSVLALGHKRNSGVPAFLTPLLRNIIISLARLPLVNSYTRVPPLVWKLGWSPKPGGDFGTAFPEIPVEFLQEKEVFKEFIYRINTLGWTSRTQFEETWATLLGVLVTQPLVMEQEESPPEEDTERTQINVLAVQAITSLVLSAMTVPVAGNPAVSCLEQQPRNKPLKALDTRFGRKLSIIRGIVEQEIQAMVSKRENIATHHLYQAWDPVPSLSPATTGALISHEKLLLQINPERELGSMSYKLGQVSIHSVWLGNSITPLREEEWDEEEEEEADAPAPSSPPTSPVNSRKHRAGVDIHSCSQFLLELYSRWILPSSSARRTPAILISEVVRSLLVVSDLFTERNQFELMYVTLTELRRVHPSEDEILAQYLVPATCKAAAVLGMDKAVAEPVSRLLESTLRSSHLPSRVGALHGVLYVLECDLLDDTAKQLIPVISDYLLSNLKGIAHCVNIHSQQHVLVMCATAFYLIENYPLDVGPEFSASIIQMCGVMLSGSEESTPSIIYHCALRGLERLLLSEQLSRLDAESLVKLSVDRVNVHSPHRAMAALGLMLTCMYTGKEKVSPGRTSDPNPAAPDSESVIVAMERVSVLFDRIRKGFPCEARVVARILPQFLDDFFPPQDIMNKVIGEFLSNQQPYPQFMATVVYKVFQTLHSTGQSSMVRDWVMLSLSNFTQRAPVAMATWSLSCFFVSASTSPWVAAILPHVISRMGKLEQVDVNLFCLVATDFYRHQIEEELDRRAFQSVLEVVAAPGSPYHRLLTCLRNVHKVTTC
UniProt P06748: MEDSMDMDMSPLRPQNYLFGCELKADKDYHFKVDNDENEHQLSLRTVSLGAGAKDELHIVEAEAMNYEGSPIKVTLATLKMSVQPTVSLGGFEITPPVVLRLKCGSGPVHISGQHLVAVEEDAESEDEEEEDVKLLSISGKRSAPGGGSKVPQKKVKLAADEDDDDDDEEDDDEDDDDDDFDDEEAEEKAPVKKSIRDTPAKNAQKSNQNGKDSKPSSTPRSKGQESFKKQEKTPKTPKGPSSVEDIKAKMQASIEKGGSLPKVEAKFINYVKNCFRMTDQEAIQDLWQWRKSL
UniProt Q92688: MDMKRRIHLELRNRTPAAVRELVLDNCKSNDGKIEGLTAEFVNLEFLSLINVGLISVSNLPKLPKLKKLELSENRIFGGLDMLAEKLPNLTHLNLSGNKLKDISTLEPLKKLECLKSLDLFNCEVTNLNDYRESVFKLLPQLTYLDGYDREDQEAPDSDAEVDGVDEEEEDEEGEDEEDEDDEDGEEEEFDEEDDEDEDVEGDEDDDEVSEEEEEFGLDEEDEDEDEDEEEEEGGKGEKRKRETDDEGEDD

To fix the notation:
B1: Lamin B2 (protein, UniProt Q03252 1-620)
chain: MSPPSPGRRREQRRPRAAATMATPLPGRAGGPATPLSPTRLSRLQEKEELRELNDRLAHYIDRVRALELENDRLLLKISEKEEVTTREVSGIKALYESELADARRVLDETARERARLQIEIGKLRAELDEVNKSAKKREGELTVAQGRVKDLESLFHRSEVELAAALSDKRGLESDVAELRAQLAKAEDGHAVAKKQLEKETLMRVDLENRCQSLQEELDFRKSVFEEEVRETRRRHERRLVEVDSSRQQEYDFKMAQALEELRSQHDEQVRLYKLELEQTYQAKLDSAKLSSDQNDKAASAAREELKEARMRLESLSYQLSGLQKQASAAEDRIRELEEAMAGERDKFRKMLDAKEQEMTEMRDVMQQQLAEYQELLDVKLALDMEINAYRKLLEGEEERLKLSPSPSSRVTVSRATSSSSGSLSATGRLGRSKRKRLEVEEPLGSGPSVLGTGTGGSGGFHLAQQASASGSVSIEEIDLEGKFVQLKNNSDKDQSLGNWRIKRQVLEGEEIAYKFTPKYILRAGQMVTVWAAGAGVAHSPPSTLVWKGQSSWGTGESFRTVLVNADGEEVAMRTVKKSSVMRENENGEEEEEEAEFGEEDLFHQQGDPRTTSRGCYVM
B2: Xeroderma pigmentosum complementation group C protein (protein, UniProt Q01831 1-940)
chain: MARKRAAGGEPRGRELRSQKSKAKSKARREEEEEDAFEDEKPPKKSLLSKVSQGKRKRGCSHPGGSADGPAKKKVAKVTVKSENLKVIKDEALSDGDDLRDFPSDLKKAHHLKRGATMNEDSNEEEEESENDWEEVEELSEPVLGDVRESTAFSRSLLPVKPVEIEIETPEQAKTRERSEKIKLEFETYLRRAMKRFNKGVHEDTHKVHLLCLLANGFYRNNICSQPDLHAIGLSIIPARFTRVLPRDVDTYYLSNLVKWFIGTFTVNAELSASEQDNLQTTLERRFAIYSARDDEELVHIFLLILRALQLLTRLVLSLQPIPLKSATAKGKKPSKERLTADPGGSSETSSQVLENHTKPKTSKGTKQEETFAKGTCRPSAKGKRNKGGRKKRSKPSSSEEDEGPGDKQEKATQRRPHGRERRVASRVSYKEESGSDEAGSGSDFELSSGEASDPSDEDSEPGPPKQRKAPAPQRTKAGSKSASRTHRGSHRKDPSLPAASSSSSSSKRGKKMCSDGEKAEKRSIAGIDQWLEVFCEQEEKWVCVDCVHGVVGQPLTCYKYATKPMTYVVGIDSDGWVRDVTQRYDPVWMTVTRKCRVDAEWWAETLRPYQSPFMDREKKEDLEFQAKHMDQPLPTAIGLYKNHPLYALKRHLLKYEAIYPETAAILGYCRGEAVYSRDCVHTLHSRDTWLKKARVVRLGEVPYKMVKGFSNRARKARLAEPQLREENDLGLFGYWQTEEYQPPVAVDGKVPRNEFGNVYLFLPSMMPIGCVQLNLPNLHRVARKLDIDCVQAITGFDFHGGYSHPVTDGYIVCEEFKDVLLTAWENEQAVIERKEKEKKEKRALGNWKLLAKGLLIRERLKRRYGPKSEAAAPHTDAGGGLSSDEEEGTSSQAEAARILAASWPQNREDEEKQKLKGGPKKTKREKKAAASHLFPFEQL
B3: Zinc finger protein 428 (protein, UniProt Q96B54 1-188)
chain: MTETREPAETGGYASLEEDDEDLSPGPEHSSDSEYTLSEPDSEEEEDEEEEEEETTDDPEYDPGYKVKQRLGGGRGGPSRRAPRAAQPPAQPCQLCGRSPLGEAPPGTPPCRLCCPATAPQEAPAPEGRALGEEEEEPPRAGEGRPAGREEEEEEEEEGTYHCTECEDSFDNLGELHGHFMLHARGEV
B4: Glycodelin, progesterone associated endometrial protein (protein, UniProt P09466 19-180)
chain: MDIPQTKQDLELPKLAGTWHSMAMATNNISLMATLKAPLRVHITSLLPTPEDNLEIVLHRWENNSCVEKKVLGEKTENPKKFKINYTVANEATLLDTDYDNFLFLCLQDTTTPIQSMMCQYLARVLVEDDEIMQGFIRAFRPLPRHLWYLLDLKQMEEPCRF
B5: CD2 antigen (cytoplasmic tail) binding protein 2 (protein, UniProt O95400 1-341)
chain: MPKRKVTFQGVGDEEDEDEIIVPKKKLVDPVAGSGGPGSRFKGKHSLDSDEEEDDDDGGSSKYDILASEDVEGQEAATLPSEGGVRITPFNLQEEMEEGHFDADGNYFLNRDAQIRDSWLDNIDWVKIRERPPGQRQASDSEEEDSLGQTSMSAQALLEGLLELLLPRETVAGALRRLGARGGGKGRKGPGQPSSPQRLDRLSGLADQMVARGNLGVYQETRERLAMRLKGLGCQTLGPHNPTPPPSLDMFAEELAEEELETPTPTQRGEAESRGDGLVDVMWEYKWENTGDAELYGPFTSAQMQTWVSEGYFPDGVYCRKLDPPGGQFYNSKRIDFDLYT
B6: Serine/threonine-protein phosphatase 1 (FB19) (protein, UniProt Q96QC0 1-940)
chain: MGSGPIDPKELLKGLDSFLNRDGEVKSVDGISKIFSLMKEARKMVSRCTYLNILLQTRSPEILVKFIDVGGYKLLNNWLTYSKTTNNIPLLQQILLTLQHLPLTVDHLKQNNTAKLVKQLSKSSEDEELRKLASVLVSDWMAVIRSQSSTQPAEKDKKKRKDEGKSRTTLPERPLTEVKAETRAEEAPEKKREKPKSLRTTAPSHAKFRSTGLELETPSLVPVKKNASTVVVSDKYNLKPIPLKRQSNVAAPGDATPPAEKKYKPLNTTPNATKEIKVKIIPPQPMEGLGFLDALNSAPVPGIKIKKKKKVLSPTAAKPSPFEGKTSTEPSTAKPSSPEPAPPSEAMDADRPGTPVPPVEVPELMDTASLEPGALDAKPVESPGDPNQLTRKGRKRKSVTWPEEGKLREYFYFELDETERVNVNKIKDFGEAAKREILSDRHAFETARRLSHDNMEEKVPWVCPRPLVLPSPLVTPGSNSQERYIQAEREKGILQELFLNKESPHEPDPEPYEPIPPKLIPLDEECSMDETPYVETLEPGGSGGSPDGAGGSKLPPVLANLMGSMGAGKGPQGPGGGGINVQEILTSIMGSPNSHPSEELLKQPDYSDKIKQMLVPHGLLGPGPIANGFPPGGPGGPKGMQHFPPGPGGPMPGPHGGPGGPVGPRLLGPPPPPRGGDPFWDGPGDPMRGGPMRGGPGPGPGPYHRGRGGRGGNEPPPPPPPFRGARGGRSGGGPPNGRGGPGGGMVGGGGHRPHEGPGGGMGNSSGHRPHEGPGGGMGSGHRPHEGPGGSMGGGGGHRPHEGPGGGISGGSGHRPHEGPGGGMGAGGGHRPHEGPGGSMGGSGGHRPHEGPGHGGPHGHRPHDVPGHRGHDHRGPPPHEHRGHDGPGHGGGGHRGHDGGHSHGGDMSNRPVCRHFMMKGNCRYENNCAFYHPGVNGPPLP
B7: Treacle protein (Treacher Collins syndrome protein) (protein, UniProt Q13428 1-1488)
chain: MAEARKRRELLPLIYHHLLRAGYVRAAREVKEQSGQKCFLAQPVTLLDIYTHWQQTSELGRKRKAEEDAALQAKKTRVSDPISTSESSEEEEEAEAETAKATPRLASTNSSVLGADLPSSMKEKAKAETEKAGKTGNSMPHPATGKTVANLLSGKSPRKSAEPSANTTLVSETEEEGSVPAFGAAAKPGMVSAGQADSSSEDTSSSSDETDVEGKPSVKPAQVKASSVSTKESPARKAAPAPGKVGDVTPQVKGGALPPAKRAKKPEEESESSEEGSESEEEAPAGTRSQVKASEKILQVRAASAPAKGTPGKGATPAPPGKAGAVASQTKAGKPEEDSESSSEESSDSEEETPAAKALLQAKASGKTSQVGAASAPAKESPRKGAAPAPPGKTGPAVAKAQAGKREEDSQSSSEESDSEEEAPAQAKPSGKAPQVRAASAPAKESPRKGAAPAPPRKTGPAAAQVQVGKQEEDSRSSSEESDSDREALAAMNAAQVKPLGKSPQVKPASTMGMGPLGKGAGPVPPGKVGPATPSAQVGKWEEDSESSSEESSDSSDGEVPTAVAPAQEKSLGNILQAKPTSSPAKGPPQKAGPVAVQVKAEKPMDNSESSEESSDSADSEEAPAAMTAAQAKPALKIPQTKACPKKTNTTASAKVAPVRVGTQAPRKAGTATSPAGSSPAVAGGTQRPAEDSSSSEESDSEEEKTGLAVTVGQAKSVGKGLQVKAASVPVKGSLGQGTAPVLPGKTGPTVTQVKAEKQEDSESSEEESDSEEAAASPAQVKTSVKKTQAKANPAAARAPSAKGTISAPGKVVTAAAQAKQRSPSKVKPPVRNPQNSTVLARGPASVPSVGKAVATAAQAQTGPEEDSGSSEEESDSEEEAETLAQVKPSGKTHQIRAALAPAKESPRKGAAPTPPGKTGPSAAQAGKQDDSGSSSEESDSDGEAPAAVTSAQVIKPPLIFVDPNRSPAGPAATPAQAQAASTPRKARASESTARSSSSESEDEDVIPATQCLTPGIRTNVVTMPTAHPRIAPKASMAGASSSKESSRISDGKKQEGPATQVSKKNPASLPLTQAALKVLAQKASEAQPPVARTQPSSGVDSAVGTLPATSPQSTSVQAKGTNKLRKPKLPEVQQATKAPESSDDSEDSSDSSSGSEEDGEGPQGAKSAHTLGPTPSRTETLVEETAAESSEDDVVAPSQSLLSGYMTPGLTPANSQASKATPKLDSSPSVSSTLAAKDDPDGKQEAKPQQAAGMLSPKTGGKEAASGTTPQKSRKPKKGAGNPQASTLALQSNITQCLLGQPWPLNEAQVQASVVKVLTELLEQERKKVVDTTKESSRKGWESRKRKLSGDQPAARTPRSKKKKKLGAGEGGEASVSPEKTSTTSKGKAKRDKASGDVKEKKGKGSLGSQGAKDEPEEELQKGMGTVEGGDQSNPKSKKEKKKSDKRKKDKEKKEKKKKAKKASTKDSESPSQKKKKKKKKTAEQTV

No constants are given. Whether binding was seen depends on the method and setting. Binding seen in cells or lysates may run through a third protein. These calls come from enrichment with a bait or labelling near it, and not all partners need be listed. Where a sequence is shown, tags or fusion partners need not be part of it.

One test concerns the target T1, recombinant purified His-tagged human BAF (H6BAF) dimers (human) (UniProt O75531).
T1 sequence: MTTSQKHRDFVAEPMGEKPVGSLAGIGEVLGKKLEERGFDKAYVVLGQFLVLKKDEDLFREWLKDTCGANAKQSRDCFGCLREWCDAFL
Nature of the test: affinity purification with mass spectrometry; 30 µg H6BAF dimers on Ni-NTA beads, 500 µg pre-cleared HeLa nuclear lysate (benzonase-treated), 3 hrs 4°C; eluted with 0.3 M then 1 M NaCl; LC-MS/MS of eluates; Ni beads alone as control; only the target purified.
With B1, the binding entry is given as “binds”.
The same measure, in the same setting: the same measure for B2: “binds”; for B3: “binds”; for B4: “binds”.
With B5, the binding result is “binds”.

In the next test the target is T1, recombinant purified His-tagged human BAF (H6BAF) dimers (human). Nature of the test: affinity purification with mass spectrometry; scaled up: 100 µg Ni-BAF beads, 5 mg HeLa nuclear lysate proteins; 0.3 M and 1 M NaCl eluates of BAF and control beads labelled with iTRAQ 4-plex reagents; enrichment against bead-only controls; only the target purified.
“Core histone macro-H2A (from UniProt O75367 1-369)”: the binding entry is reported as “binds”.
With “Histone H1.2 (from UniProt P16403 1-213)”, the binding result is “binds”.
As to “SET (Protein Phosphatase 2A inhibitor, I2PP2A) (from UniProt Q01105 1-290)”, the binding entry is given as “binds”.
In the case of Keratin 2 (from UniProt P35908 1-639), the binding entry was “binds”.
Regarding “Huntingtin (Huntington disease protein) (from UniProt P42858 1-3142)”, the binding entry is “binds”.
Take “Nucleophosmin (NPM) (from UniProt P06748 1-294)”: the binding result was “binds”.
Turning to DNA-directed RNA polymerase beta chain, the binding result is “binds”.
The same measure, in the same setting: the same measure for “Acidic leucine-rich nuclear phosphoprotein (PHAPI2) (from UniProt Q92688 1-251)”: “binds”; for “Nucleoprotein TPR (from UniProt P12270 1-2363)”: “binds”; for B6: “binds”.
For the molecule B7, the binding entry is listed as “binds”.
